No constants are given. Whether binding was seen depends on the method and setting. In cells and extracts the contact can be indirect. Some entries that bind do so weakly or less than the wild type.
Molecular target: T7-tagged TRIM25 (human) (UniProt Q14258)
Assay: co-IP

Protein sequences, listed by entry. Tags and fused reporters are not part of them.
UniProt Q14258: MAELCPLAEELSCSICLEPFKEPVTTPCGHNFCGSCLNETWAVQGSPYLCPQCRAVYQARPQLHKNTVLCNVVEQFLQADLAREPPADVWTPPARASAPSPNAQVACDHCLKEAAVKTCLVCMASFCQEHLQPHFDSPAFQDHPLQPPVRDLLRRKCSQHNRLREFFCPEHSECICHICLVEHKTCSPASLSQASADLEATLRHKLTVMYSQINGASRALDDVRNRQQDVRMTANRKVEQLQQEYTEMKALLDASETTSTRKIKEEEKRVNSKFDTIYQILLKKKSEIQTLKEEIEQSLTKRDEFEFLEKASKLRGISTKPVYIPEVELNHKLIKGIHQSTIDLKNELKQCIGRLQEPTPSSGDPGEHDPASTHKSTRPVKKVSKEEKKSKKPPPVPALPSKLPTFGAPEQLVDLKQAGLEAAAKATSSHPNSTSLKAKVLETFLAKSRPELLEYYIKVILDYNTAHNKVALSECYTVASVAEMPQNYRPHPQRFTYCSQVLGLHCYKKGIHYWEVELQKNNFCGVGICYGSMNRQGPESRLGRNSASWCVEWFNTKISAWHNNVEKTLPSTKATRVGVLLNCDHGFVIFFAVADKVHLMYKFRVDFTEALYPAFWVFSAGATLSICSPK
UniProt Q7Z2W4: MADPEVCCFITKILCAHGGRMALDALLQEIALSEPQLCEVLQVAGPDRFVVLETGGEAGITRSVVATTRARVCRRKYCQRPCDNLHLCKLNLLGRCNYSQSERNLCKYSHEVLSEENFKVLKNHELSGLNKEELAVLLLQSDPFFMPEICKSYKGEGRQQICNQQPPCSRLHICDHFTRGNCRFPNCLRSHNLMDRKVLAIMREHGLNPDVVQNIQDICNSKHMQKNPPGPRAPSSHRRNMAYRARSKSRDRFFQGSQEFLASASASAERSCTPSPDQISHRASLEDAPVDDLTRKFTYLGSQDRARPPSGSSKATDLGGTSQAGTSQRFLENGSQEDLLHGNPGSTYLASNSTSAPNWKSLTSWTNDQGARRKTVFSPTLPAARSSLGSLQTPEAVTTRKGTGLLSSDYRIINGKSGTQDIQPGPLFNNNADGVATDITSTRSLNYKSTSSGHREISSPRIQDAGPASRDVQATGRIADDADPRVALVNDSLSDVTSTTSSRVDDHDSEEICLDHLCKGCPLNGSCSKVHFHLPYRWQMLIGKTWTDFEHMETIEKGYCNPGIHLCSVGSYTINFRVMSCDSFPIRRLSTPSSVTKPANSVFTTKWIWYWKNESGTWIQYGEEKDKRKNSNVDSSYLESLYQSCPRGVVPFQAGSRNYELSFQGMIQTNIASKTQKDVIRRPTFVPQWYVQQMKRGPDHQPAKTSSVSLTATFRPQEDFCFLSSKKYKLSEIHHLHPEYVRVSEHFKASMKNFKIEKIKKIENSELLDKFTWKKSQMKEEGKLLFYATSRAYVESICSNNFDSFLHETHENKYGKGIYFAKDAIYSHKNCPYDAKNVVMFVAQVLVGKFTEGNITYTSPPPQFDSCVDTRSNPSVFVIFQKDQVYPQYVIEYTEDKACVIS

Question: With “zinc-finger antiviral protein (ZAP), untagged (from UniProt Q7Z2W4 1-902)” as the substance, how does the binding read?
Answer: binds
